Among the data in patent US20020123481A1 are binding values, retold here.

The assay has as its target c-Fos Induced Growth Factor (FIGF), mouse, encoded by Fos regulated gene F0401 (mouse) (UniProt P97946). The assay can be described thus: SDS-PAGE of immunoprecipitated FIGF: multimeric form under non-denaturing conditions, mostly a 66 kDa band and a minor 33 kDa monomer with beta-mercaptoethanol.

No constants are given. Whether binding was seen depends on the method and setting. Some results given as binding are weak or reduced against the parent protein; the word gives no strength.

B1: c-Fos Induced Growth Factor (FIGF), mouse, encoded by Fos regulated gene F0401 (ligand)
chain: FRSEHGPVKDFSFERSSRSMLERSEQQIRAASSLEELLQIAHSEDWKLWRCRLKLKSLASMDSRSASHRSTRFAATFYDTETLKVIDEEWQRTQCSPRETCVEVASELGKTTNTFFKPPCVNVFRCGGCCNEEGVMCMNTSTSYISKQLFEISVPLTSVPELVPVKIANHTGCKCLPTGPRHPYSIIRRSIQTPEEDECPHSKKLCPIDMLWDNTKCKCVLQDETPLPGTEDHSYLQEPTLCGPHMTFDEDRCECVCKAPCPGDLIQHPENCSCFECKESLESCCQKHKIFHPDTCSCEDRCPFHTRTCASRKPACGKHWRFPKETRAQGLYSQENP
As to B1, the binding entry was “binds”.
